Among the data in PMC7615239 are binding values, retold here.

The chains behind the UniProt entries cited, without tags or fusion partners.
UniProt Q9FIE3: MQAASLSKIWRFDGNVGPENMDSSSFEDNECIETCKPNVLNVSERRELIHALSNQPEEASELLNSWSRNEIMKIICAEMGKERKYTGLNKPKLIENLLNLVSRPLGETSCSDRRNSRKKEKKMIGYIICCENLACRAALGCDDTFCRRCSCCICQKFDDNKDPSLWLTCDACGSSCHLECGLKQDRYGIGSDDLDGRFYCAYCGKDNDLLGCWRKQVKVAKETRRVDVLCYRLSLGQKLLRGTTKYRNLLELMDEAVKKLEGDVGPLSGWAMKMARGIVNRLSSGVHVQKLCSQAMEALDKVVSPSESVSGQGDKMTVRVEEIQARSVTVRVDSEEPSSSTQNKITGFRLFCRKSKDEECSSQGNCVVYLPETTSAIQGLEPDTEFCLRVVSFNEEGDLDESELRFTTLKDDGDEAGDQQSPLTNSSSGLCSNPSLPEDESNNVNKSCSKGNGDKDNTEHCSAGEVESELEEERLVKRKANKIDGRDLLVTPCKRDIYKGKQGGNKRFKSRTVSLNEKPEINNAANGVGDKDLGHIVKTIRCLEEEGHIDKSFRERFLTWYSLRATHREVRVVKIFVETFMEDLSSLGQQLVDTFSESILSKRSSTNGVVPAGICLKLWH

Assay [1] concerns the target T1, GFP-VRN5 (Arabidopsis thaliana) (UniProt Q9LHF5).
T1 sequence: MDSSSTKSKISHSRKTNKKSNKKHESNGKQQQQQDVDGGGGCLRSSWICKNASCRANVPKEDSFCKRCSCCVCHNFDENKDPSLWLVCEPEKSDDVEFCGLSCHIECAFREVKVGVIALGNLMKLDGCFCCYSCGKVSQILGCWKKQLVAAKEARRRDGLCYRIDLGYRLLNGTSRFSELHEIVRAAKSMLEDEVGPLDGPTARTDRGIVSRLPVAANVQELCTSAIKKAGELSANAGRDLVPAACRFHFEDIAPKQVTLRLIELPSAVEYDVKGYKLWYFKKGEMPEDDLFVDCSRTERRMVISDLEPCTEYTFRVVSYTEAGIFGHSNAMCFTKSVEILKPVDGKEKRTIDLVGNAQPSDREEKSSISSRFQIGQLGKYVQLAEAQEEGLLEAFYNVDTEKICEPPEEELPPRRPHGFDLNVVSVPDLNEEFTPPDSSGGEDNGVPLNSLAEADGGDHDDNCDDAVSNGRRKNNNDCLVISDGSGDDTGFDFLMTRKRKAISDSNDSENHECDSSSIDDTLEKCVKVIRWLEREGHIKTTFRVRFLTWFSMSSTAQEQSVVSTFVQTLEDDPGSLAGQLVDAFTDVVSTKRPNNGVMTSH
Put plainly: co-IP; GFP-tagged VEL protein (wt, mutant or chimera) coexpressed with all four HA-tagged PRC2 subunits (VRN2, SWN, FIE, MSI1) in HEK293T; GFP-trap 90 min at 4°C; lysis buffer 20 mM Tris pH 7.4, 200 mM NaCl, 10% glycerol, 0.2% Triton X-100; anti-HA blot.

In assay [2] the target is T2, GFP-VEL1 (Arabidopsis thaliana) (UniProt Q9SUM4).
T2 sequence: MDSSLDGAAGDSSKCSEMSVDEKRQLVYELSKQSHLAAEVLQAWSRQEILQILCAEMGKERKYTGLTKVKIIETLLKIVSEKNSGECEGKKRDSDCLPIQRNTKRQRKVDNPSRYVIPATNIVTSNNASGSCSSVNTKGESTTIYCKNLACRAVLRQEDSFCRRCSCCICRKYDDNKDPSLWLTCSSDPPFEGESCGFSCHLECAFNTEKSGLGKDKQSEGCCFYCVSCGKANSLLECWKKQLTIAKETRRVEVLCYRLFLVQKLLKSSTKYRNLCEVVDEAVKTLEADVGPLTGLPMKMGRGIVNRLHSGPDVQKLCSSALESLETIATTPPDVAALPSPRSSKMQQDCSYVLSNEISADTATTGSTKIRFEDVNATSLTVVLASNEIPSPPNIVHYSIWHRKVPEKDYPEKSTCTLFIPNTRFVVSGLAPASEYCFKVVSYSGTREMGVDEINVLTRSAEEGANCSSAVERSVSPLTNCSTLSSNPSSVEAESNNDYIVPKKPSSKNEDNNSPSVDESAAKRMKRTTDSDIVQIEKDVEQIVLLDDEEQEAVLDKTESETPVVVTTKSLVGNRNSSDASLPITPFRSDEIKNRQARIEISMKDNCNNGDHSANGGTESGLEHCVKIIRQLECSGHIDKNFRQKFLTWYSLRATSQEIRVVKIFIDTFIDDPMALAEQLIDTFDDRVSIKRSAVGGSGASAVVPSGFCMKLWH
The description is as above.

Assay [3] deals with VIN3-GFP (Arabidopsis thaliana) (UniProt Q9FIE3). The assay is described as above.
Assay [4] concerns the target T3, GFP-tagged VRN2 (Arabidopsis) (UniProt Q8W5B1).
T3 sequence: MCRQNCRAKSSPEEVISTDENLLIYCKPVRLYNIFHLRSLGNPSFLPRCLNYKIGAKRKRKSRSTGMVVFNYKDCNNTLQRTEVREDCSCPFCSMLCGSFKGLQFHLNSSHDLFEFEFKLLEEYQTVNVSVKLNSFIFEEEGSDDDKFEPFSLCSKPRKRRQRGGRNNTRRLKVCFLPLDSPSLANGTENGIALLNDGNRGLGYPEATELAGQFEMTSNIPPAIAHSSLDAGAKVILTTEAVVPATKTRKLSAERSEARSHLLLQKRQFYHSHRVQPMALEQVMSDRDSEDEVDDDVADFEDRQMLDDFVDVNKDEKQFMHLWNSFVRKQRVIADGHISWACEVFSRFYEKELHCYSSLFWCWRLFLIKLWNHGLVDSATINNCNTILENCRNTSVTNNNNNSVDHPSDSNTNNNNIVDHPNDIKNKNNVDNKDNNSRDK
Kind of assay: co-IP; GFP-tagged VRN2 coexpressed with SWN, MSI1 and FIE, without or with VRN5, in HEK293T (Supplemental Fig. S1F,G).

The target in assay [5] is T4, GFP-VAL1 (Arabidopsis) (UniProt Q8W4L5).
T4 sequence: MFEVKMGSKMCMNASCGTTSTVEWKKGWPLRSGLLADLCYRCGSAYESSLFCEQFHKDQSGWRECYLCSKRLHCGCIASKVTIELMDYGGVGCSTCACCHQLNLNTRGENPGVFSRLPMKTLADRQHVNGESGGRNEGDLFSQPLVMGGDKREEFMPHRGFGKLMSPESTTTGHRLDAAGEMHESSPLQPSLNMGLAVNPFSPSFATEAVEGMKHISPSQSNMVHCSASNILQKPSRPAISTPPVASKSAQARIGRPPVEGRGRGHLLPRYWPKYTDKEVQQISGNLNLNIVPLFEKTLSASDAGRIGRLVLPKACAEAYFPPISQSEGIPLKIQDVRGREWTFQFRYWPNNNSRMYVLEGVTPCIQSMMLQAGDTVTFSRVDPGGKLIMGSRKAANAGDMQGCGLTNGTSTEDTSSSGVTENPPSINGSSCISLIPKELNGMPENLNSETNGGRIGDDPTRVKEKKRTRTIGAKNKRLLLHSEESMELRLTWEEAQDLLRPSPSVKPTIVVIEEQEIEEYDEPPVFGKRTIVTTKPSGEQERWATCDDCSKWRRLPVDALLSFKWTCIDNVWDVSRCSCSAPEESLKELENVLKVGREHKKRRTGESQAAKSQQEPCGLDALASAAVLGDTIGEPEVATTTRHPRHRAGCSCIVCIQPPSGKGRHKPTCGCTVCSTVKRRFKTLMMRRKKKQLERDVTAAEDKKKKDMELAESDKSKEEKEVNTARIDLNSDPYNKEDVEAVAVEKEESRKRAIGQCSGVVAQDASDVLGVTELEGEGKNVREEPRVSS
Put plainly: co-IP; GFP-VAL1 (wt or internal deletions) coexpressed with FLAG-dsRed-tagged VEL proteins (wt or mutant) in HEK293T; GFP-trap; anti-FLAG blot.

Results are given in words; binding and its absence hold for the method and conditions named. Binding seen in cells or lysates may run through a third protein. Some results given as binding are weak or reduced against the parent protein; the word gives no strength. Sequences can lack the tags named with a protein.

B1: HA-tagged FIE (protein, UniProt Q9LT47 1-369)
chain: MSKITLGNESIVGSLTPSNKKSYKVTNRIQEGKKPLYAVVFNFLDARFFDVFVTAGGNRITLYNCLGDGAISALQSYADEDKEESFYTVSWACGVNGNPYVAAGGVKGIIRVIDVNSETIHKSLVGHGDSVNEIRTQPLKPQLVITASKDESVRLWNVETGICILIFAGAGGHRYEVLSVDFHPSDIYRFASCGMDTTIKIWSMKEFWTYVEKSFTWTDDPSKFPTKFVQFPVFTASIHTNYVDCNRWFGDFILSKSVDNEILLWEPQLKENSPGEGASDVLLRYPVPMCDIWFIKFSCDLHLSSVAIGNQEGKVYVWDLKSCPPVLITKLSHNQSKSVIRQTAMSVDGSTILACCEDGTIWRWDVITK
With B1, the binding result is listed as “binds” in assay [1], “binds weakly” in assay [2], “binds weakly” in assay [3] and “binds” in assay [4].

B2: FLAG-dsRed-VEL1 (protein, UniProt Q9SUM4 1-714)
chain: T2 sequence
In the case of B2, the binding entry in assay [5] was “binds weakly”.

B3: HA-tagged VRN2 (protein, UniProt Q8W5B1 1-440)
chain: T3 sequence
In the case of B3, the results for the binding result in assay [1], in assay [2] and in assay [3] were “binds”, “binds weakly” and “binds weakly”, respectively.

B4: FLAG-dsRed-VRN5 (protein, UniProt Q9LHF5 1-602)
chain: T1 sequence
With B4, the binding result in assay [5] is reported as “binds weakly”.
